Results are given in words; binding and its absence hold for the method and conditions named. In cells and extracts the contact can be indirect. Some entries that bind do so weakly or less than the wild type.
Tests used:
[1] = molecular target: UTX, the ubiquitously transcribed X-chromosome tetratricopeptide-repeat protein (human (endogenous in MCF-7 and T-47D)) (UniProt O15550); assay: co-IP; endogenous proteins in MCF-7 whole-cell lysates (50 mM Tris-HCl pH 7.4, 150 mM NaCl, 1 mM EDTA, 0.5% NP-40, 0.25% sodium deoxycholate), IP 12 h at 4 °C, immunoblot; IgG as negative control; GATA3-UTX also tested in the presence and absence of ERα
[2] = molecular target: MLL4 (human (endogenous in MCF-7)) (UniProt O14686); assay: as above
[3] = molecular target: PA1 (human (endogenous in MCF-7)) (UniProt Q9BTK6); assay: as above
[4] = molecular target: ASH2L (human (endogenous in MCF-7)) (UniProt Q9UBL3); assay: as above
[5] = molecular target: PTIP (human (endogenous in MCF-7)) (UniProt Q6ZW49); assay: as above
[6] = molecular target: RBBP5 (human (endogenous in MCF-7)) (UniProt Q15291); assay: as above
GST-fused GATA3 = GST-fused GATA3 (UniProt P23771); assay: pull-down; ~10 μg GST-fusion protein (E. coli BL21, crude bacterial lysates) mixed with 5-8 μL in vitro transcription/translation product in 0.8% BSA in PBS with protease inhibitor; glutathione-agarose beads, 4 °C, 2 h; western blot
[7] = molecular target: GST-RBBP5 (full-length MLL4-complex component in pGEX-4T-3) (UniProt Q15291); assay: as above
[8] = molecular target: GST-ASH2L (full-length MLL4-complex component in pGEX-4T-3) (UniProt Q9UBL3); assay: as above
[9] = molecular target: GST-UTX (full-length MLL4-complex component in pGEX-4T-3) (UniProt O15550); assay: as above
[10] = molecular target: GST-fused Jumonji C (JmjC) domain of UTX (UniProt O15550); assay: as above

The chains behind the UniProt entries cited, without tags or fusion partners. Where a name states a change or a piece, a line headed by the entry shows the natural chain unless it says otherwise. A line that says so, or that is headed by a name, gives the form on record, which may keep a tag or linker. Residues count along the entry.
UniProt O15550: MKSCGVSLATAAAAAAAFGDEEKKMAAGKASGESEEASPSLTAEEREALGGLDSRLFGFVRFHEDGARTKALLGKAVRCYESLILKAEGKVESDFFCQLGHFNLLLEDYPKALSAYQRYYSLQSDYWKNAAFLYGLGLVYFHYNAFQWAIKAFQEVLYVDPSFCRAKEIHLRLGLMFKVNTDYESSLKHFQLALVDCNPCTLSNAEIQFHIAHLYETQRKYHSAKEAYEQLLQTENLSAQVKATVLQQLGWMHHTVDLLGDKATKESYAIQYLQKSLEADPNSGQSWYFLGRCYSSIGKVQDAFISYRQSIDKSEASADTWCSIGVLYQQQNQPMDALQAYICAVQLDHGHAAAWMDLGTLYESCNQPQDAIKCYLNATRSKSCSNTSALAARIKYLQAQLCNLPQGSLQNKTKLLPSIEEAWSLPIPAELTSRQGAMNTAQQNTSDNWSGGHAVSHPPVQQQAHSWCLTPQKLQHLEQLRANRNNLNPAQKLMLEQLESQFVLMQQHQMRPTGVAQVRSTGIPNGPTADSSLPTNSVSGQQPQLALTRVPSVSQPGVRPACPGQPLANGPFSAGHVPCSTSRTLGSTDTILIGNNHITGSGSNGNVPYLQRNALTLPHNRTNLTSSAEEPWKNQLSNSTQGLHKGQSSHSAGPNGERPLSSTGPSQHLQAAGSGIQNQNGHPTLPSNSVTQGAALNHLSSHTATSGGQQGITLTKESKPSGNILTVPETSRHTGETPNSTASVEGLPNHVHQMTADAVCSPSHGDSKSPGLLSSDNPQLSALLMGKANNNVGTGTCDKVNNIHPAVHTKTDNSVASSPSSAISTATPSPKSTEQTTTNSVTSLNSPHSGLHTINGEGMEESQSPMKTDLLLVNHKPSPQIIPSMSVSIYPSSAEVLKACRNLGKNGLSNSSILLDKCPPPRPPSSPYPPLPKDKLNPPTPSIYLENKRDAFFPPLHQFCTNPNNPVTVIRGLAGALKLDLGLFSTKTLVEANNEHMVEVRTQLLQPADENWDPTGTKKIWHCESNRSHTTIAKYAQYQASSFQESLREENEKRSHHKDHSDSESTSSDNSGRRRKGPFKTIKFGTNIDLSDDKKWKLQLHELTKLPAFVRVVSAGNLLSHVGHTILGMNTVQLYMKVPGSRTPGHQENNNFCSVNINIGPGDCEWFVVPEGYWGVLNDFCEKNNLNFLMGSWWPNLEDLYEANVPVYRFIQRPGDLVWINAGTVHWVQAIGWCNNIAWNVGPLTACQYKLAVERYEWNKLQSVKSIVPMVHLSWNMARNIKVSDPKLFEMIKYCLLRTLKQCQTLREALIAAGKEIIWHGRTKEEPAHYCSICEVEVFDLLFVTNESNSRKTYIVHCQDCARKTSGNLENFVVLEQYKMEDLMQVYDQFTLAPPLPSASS
GST-fused Jumonji C (JmjC) domain of UTX: residues 1095-1258 of O15550
UniProt Q9BTK6: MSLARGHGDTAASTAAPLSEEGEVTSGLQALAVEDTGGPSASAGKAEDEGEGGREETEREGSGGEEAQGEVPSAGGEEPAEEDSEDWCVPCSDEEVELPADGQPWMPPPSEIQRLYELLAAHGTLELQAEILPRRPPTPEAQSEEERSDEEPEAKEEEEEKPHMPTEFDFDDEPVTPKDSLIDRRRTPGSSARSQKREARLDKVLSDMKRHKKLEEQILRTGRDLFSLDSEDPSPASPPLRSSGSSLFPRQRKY
UniProt Q9UBL3: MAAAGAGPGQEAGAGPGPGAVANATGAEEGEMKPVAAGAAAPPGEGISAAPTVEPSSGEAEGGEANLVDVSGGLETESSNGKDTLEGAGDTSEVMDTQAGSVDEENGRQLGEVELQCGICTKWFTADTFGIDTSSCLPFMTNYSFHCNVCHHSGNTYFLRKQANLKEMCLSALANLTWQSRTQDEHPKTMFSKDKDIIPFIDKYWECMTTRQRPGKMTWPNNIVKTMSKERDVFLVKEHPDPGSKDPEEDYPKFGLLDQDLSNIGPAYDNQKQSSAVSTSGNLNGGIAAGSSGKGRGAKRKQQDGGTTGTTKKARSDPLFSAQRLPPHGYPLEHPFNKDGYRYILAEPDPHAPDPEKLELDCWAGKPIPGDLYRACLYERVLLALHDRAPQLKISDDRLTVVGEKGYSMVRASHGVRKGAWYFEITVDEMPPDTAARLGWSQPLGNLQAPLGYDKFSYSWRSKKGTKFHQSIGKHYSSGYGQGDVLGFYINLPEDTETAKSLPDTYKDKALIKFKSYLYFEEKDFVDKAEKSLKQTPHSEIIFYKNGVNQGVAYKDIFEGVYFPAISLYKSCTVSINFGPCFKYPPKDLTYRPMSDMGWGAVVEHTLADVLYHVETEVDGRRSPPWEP
UniProt Q6ZW49: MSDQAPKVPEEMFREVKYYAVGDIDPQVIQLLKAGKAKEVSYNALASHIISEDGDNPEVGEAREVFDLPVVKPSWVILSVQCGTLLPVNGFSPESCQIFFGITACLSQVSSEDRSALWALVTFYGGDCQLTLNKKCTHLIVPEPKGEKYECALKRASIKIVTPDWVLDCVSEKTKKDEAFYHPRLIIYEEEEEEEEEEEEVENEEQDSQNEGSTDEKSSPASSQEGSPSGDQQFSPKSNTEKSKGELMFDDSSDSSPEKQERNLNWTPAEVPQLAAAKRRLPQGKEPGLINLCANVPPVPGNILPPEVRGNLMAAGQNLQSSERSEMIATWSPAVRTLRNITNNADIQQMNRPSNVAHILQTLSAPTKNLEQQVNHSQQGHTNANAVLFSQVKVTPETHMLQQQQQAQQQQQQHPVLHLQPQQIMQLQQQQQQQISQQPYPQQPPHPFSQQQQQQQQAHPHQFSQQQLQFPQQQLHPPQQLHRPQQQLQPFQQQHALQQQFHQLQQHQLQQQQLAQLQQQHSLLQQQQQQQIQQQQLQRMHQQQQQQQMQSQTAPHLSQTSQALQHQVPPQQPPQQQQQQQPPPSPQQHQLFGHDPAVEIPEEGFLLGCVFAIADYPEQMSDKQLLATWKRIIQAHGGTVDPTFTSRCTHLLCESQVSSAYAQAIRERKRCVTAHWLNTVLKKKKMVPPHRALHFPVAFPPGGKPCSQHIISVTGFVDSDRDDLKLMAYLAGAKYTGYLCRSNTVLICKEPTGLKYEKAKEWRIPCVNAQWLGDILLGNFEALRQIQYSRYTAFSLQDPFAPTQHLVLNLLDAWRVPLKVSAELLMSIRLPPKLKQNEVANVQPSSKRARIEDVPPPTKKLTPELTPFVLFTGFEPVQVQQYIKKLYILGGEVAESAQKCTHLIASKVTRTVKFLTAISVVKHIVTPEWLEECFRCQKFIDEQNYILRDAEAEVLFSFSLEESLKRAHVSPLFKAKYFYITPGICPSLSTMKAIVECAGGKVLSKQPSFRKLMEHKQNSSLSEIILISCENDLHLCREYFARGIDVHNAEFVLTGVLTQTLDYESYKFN
UniProt Q15291: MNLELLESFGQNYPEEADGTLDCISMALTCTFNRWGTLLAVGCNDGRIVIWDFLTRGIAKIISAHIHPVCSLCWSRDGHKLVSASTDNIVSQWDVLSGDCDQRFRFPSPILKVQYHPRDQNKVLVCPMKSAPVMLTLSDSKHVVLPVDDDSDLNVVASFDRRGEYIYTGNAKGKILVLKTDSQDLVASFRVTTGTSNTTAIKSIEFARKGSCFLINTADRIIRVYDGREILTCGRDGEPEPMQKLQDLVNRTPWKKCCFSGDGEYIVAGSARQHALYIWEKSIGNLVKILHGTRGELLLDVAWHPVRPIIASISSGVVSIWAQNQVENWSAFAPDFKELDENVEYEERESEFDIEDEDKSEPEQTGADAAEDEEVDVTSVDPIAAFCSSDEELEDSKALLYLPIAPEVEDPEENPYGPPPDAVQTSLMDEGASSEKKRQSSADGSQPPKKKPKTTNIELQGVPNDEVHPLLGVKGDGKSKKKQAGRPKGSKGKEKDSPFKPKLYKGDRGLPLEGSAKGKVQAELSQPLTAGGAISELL
UniProt P23771: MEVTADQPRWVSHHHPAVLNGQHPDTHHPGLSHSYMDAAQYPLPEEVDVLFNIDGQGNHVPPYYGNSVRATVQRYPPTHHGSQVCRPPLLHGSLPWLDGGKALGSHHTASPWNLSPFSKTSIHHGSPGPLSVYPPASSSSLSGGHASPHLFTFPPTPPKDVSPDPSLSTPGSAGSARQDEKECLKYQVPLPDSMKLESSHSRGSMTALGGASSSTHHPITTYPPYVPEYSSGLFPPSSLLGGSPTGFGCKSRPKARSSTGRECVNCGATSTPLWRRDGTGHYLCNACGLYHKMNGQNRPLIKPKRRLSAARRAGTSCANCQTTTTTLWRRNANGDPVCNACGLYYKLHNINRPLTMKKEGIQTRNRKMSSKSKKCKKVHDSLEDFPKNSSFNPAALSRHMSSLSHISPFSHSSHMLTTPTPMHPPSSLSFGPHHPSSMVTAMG
UniProt P43694: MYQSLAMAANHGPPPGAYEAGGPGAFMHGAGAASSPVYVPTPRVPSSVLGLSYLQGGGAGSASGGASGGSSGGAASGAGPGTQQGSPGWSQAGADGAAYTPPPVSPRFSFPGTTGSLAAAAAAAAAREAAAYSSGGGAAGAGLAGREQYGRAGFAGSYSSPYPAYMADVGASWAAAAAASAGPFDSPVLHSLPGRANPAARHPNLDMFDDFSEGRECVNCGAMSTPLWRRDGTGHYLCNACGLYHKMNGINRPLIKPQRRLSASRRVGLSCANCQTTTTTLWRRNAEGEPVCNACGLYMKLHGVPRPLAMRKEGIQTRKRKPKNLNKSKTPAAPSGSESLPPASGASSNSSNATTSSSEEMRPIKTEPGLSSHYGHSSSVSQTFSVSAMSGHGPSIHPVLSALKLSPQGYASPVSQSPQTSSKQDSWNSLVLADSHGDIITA

## ASH2L (from UniProt Q9UBL3 1-628)
[1]
  binding: binds

## GATA3 (from UniProt P23771 1-443)
[2]
  binding: binds
[1]
  binding: binds
[3]
  binding: binds
[4]
  binding: binds
[5]
  binding: binds
[6]
  binding: binds

## GATA4 (from UniProt P43694 1-442)
[1]
  binding: binds

## PA1 (from UniProt Q9BTK6 1-254)
[1]
  binding: binds

## PTIP (from UniProt Q6ZW49 1-1069)
[1]
  binding: binds

## RBBP5 (from UniProt Q15291 1-538)
[1]
  binding: binds

## in vitro transcribed/translated ASH2L (from UniProt Q9UBL3 1-628)
GST-fused GATA3
  binding: binds

## in vitro transcribed/translated GATA3 (from UniProt P23771 1-443)
[7]
  binding: binds
[8]
  binding: binds
[9]
  binding: binds
[10]
  binding: binds

## in vitro transcribed/translated RBBP5 (from UniProt Q15291 1-538)
GST-fused GATA3
  binding: binds
